Measurements as given in paper PMC7819943, “Rice protein-binding microarrays: a tool to detect cis-acting elements near promoter regions in rice”.
This is one part of the list.

The chains behind the UniProt entries cited, without tags or fusion partners.
UniProt Q0JBA9, entry or part of it: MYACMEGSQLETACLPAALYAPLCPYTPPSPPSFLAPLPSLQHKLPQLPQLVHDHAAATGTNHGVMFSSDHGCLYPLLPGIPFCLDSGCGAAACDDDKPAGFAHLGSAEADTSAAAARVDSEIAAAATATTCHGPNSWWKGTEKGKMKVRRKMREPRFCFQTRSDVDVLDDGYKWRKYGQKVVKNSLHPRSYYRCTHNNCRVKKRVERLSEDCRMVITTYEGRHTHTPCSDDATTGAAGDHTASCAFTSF

target: OsWRKY34 (Oryza sativa, UniProt Q0JBA9 1-250); test: protein-binding microarray (RPBM); PBS, 2% BSA, 51.3 ng/ul salmon testes DNA, 50 uM zinc acetate, 200 nM TF, 25 C, 1 h; high values mean tight binding; conditions: protein: recombinant; tags: N-terminal polyhistidine and DsRed monomer fusion (pET32a); label: CyDye5-dUTP incorporated in the synthesized complementary strand; 3' TTTTT single-stranded linker to array surface; dsDNA, one strand shown
Procedure, shortened: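 Binding signal is reported as fluorescence intensity per feature (arbitrary units) from an Axon 4000B scanner. Incubation used 200 nM of each Ni–NTA-purified, N-terminally polyhistidine- and DsRed-fused transcription factor from E. coli BL21-CodonPlus on a double-stranded custom Agilent array for 1 h at 25 °C, with 50 µM zinc acetate in the buffer, followed by washing.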

| Sequence | binding signal |
| --- | --- |
| TTGTTCTTCCCGTGCTGATTTGGATTTAATTACAAGTATTCGGAGTCACCTAGTGCAG | 8200 fluorescence intensity (a.u.) |
| CCTCCATCTGATATTTCTCTCTTCTCGCATCCGTGTCTTCCGGAGTCACCTAGTGCAG | 9170 fluorescence intensity (a.u.) |
| CCACCAGCGCCTCCTCTCACGCCCGCACCCACGCCCTAAACGGAGTCACCTAGTGCAG | 9770 fluorescence intensity (a.u.) |
| TATAGGTCACATATTACGTCCATTTGAGTTCAATTTTTCTCGGAGTCACCTAGTGCAG | 10900 fluorescence intensity (a.u.) |
| CCACCACCCCGCGGCTTCGCTCGCGCCACCGCCACTGATTCGGAGTCACCTAGTGCAG | 9960 fluorescence intensity (a.u.) |
| TATTATACCATCGATAGAGAGCACCAGAGCATCGTTCATTCGGAGTCACCTAGTGCAG | 8850 fluorescence intensity (a.u.) |
| CCCGCCTCCGCCGCGCGCCGCCATCCATCCTCCTCTCCGGCGGAGTCACCTAGTGCAG | 9810 fluorescence intensity (a.u.) |
| ACCATCTCAAATCACCCTCACGATCTCAATCACGTTGCGCCGGAGTCACCTAGTGCAG | 8320 fluorescence intensity (a.u.) |
| CTCTCTGTTTTGCCTACCCTTCTATCAATCAGTTTGGACACGGAGTCACCTAGTGCAG | 8280 fluorescence intensity (a.u.) |
| ATTTTTCATGGCGTCACCCTATAATTTTCGCTGGCGGTTACGGAGTCACCTAGTGCAG | 8550 fluorescence intensity (a.u.) |
| CACTATTCATGTTCAACGTTTCACCGTTCGTCTTATTTAACGGAGTCACCTAGTGCAG | 15600 fluorescence intensity (a.u.) |
| GCATCTATCTACTCCTACTATCTCTCTATCTGCATCTACTCGGAGTCACCTAGTGCAG | 10300 fluorescence intensity (a.u.) |
| CCCGGTTTCACGTGGCCTCTCTTTTGACCCGTCTTTGACCCGGAGTCACCTAGTGCAG | 9940 fluorescence intensity (a.u.) |
| GCTTCCGGCCCTGTGTCACGCCGCGCCGTTCCTCGTCGTCCGGAGTCACCTAGTGCAG | 8520 fluorescence intensity (a.u.) |
| CCTCCCAGGCAGCCTATATAATTATTCTTCTATCAATTATCGGAGTCACCTAGTGCAG | 8470 fluorescence intensity (a.u.) |
| CTCATCCTGCCGCCGCCGAATCGCCGATGGATCAATGCTCCGGAGTCACCTAGTGCAG | 8820 fluorescence intensity (a.u.) |
| GTGAATTACTACCATTTGTCATGCATTTTGTCCCATTTCACGGAGTCACCTAGTGCAG | 13400 fluorescence intensity (a.u.) |
| CTTTCTTCTTTTCTTCCGGCCTCTCTTGTCTCTTCAACTCCGGAGTCACCTAGTGCAG | 14100 fluorescence intensity (a.u.) |
| GGCGAGGCGGGATTGTTGGCGGGGAAGATGCGGGGCTATGCGGAGTCACCTAGTGCAG | 9670 fluorescence intensity (a.u.) |
| TCGTTCTCTGTTTCTTTTTGCTGAGCTCTTCAAGTATGGACGGAGTCACCTAGTGCAG | 8290 fluorescence intensity (a.u.) |
| CGTTCCAATTTTAACCAGACTTTCAATTTTGGCGTGAACTCGGAGTCACCTAGTGCAG | 8800 fluorescence intensity (a.u.) |

Part of the list above, in CSV form:
Sequence,binding signal
ATTTTTCATGGCGTCACCCTATAATTTTCGCTGGCGGTTACGGAGTCACCTAGTGCAG,8550 fluorescence intensity (a.u.)
CACTATTCATGTTCAACGTTTCACCGTTCGTCTTATTTAACGGAGTCACCTAGTGCAG,15600 fluorescence intensity (a.u.)
GCATCTATCTACTCCTACTATCTCTCTATCTGCATCTACTCGGAGTCACCTAGTGCAG,10300 fluorescence intensity (a.u.)

Remaining list, next part

| Sequence | binding signal |
| --- | --- |
| CTCCCTCCGCCGCCCCGGTTACGCAACCAAATACCGACGGCGGAGTCACCTAGTGCAG | 8050 fluorescence intensity (a.u.) |
| CTACGTCTACTTGCGCGTTTCTTGCCGTCTTCCCAGCGTGCGGAGTCACCTAGTGCAG | 8750 fluorescence intensity (a.u.) |
| ATACACTGCTGCCCATGTCTTTTGAGCGCCGCTCGACTATCGGAGTCACCTAGTGCAG | 9750 fluorescence intensity (a.u.) |
| TCATCACTCATCAAGGCTGCTTGGCTGCTTTAAGCATTCACGGAGTCACCTAGTGCAG | 8390 fluorescence intensity (a.u.) |
| GTTTTTTCCCTTATGGTTGAACTCTTCTTTTAATCAGCTTCGGAGTCACCTAGTGCAG | 8480 fluorescence intensity (a.u.) |
| CCCCGGCCCACACCTCCCCACAGTTTTGACCGACATTGTGCGGAGTCACCTAGTGCAG | 8500 fluorescence intensity (a.u.) |
| TTGTCTCAAATTAATTGTTTTTTAAGGTTGTTTGGCATATCGGAGTCACCTAGTGCAG | 9260 fluorescence intensity (a.u.) |
| TGTTTGCAGTTAGTGGAACTGAGTTTGGTTCTTCCTATTCCGGAGTCACCTAGTGCAG | 8900 fluorescence intensity (a.u.) |
| CAGTGACCAGTGTAATATGTTTCATAGTGTCGTTCTTTTCCGGAGTCACCTAGTGCAG | 9850 fluorescence intensity (a.u.) |
| AAATGTTTGACGCCGTTGACTTTTTTAAACATGTTTGACCCGGAGTCACCTAGTGCAG | 33600 fluorescence intensity (a.u.) |
| CGCAGTCTCCTCCATCTATTTCTCTCTCTCGCTCCAGCGACGGAGTCACCTAGTGCAG | 8030 fluorescence intensity (a.u.) |
| ATTATCTACAGTATTTTAAGCACAACTTTTTGTTTTTTACCGGAGTCACCTAGTGCAG | 9540 fluorescence intensity (a.u.) |
| AATCTCCCGTCTCGTTCTCGTCGTCTCCTCCGCTCCGCTCCGGAGTCACCTAGTGCAG | 10200 fluorescence intensity (a.u.) |
| TTTTTTTTGTGGTTGGTTGTATCGTGATCCTAAGTGTGAACGGAGTCACCTAGTGCAG | 15300 fluorescence intensity (a.u.) |
| CGTCACGTACACAAGTATATATTATTCGAGCCATTTTATTCGGAGTCACCTAGTGCAG | 8030 fluorescence intensity (a.u.) |
| GATCAACTATTGCACATTAACTGCCGCCTCTAACATTTAACGGAGTCACCTAGTGCAG | 8090 fluorescence intensity (a.u.) |
| AGTTATATTACCCACACATCGCCACGCATTGCCGGCCATGCGGAGTCACCTAGTGCAG | 8210 fluorescence intensity (a.u.) |
| CATTACAACTTTAAACGTTATTCGGGGCATTATATACGTCCGGAGTCACCTAGTGCAG | 9590 fluorescence intensity (a.u.) |
| ACCTAATTAATCCGTCATTAACAAATGTTTACCGTAACACCGGAGTCACCTAGTGCAG | 8660 fluorescence intensity (a.u.) |
| GCAATTAGGCTAGTATCTGAGGCAACGCCATCCTCACAATCGGAGTCACCTAGTGCAG | 8180 fluorescence intensity (a.u.) |
| ACACAGCCTGGCCCGTCACATGCAGCGCGCGGCACCCGCGCGGAGTCACCTAGTGCAG | 10400 fluorescence intensity (a.u.) |
